{"source": "PubChem BioAssay AID1224830 | NIAID, 2016", "aim": "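Genes whose knock-down alters the TNF-alpha reporter response to LPS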 (primary screen)", "system": "human THP-1 monocytic leukaemia cells, TNF dual-luciferase reporter clone, PMA-differentiated to macrophage-like cells", "knock-down reagent": "siRNA pool against human genes, 50 nM", "time to read-out": "LPS for 4 h, given about 3 days after siRNA transfection", "challenge": "bacterial LPS (TLR4 ligand), 10 ng/ml", "detection": "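TNF firefly reporter luminescence divided by renilla, normalised to the plate median, then turned into a robust z-score for each replicate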", "scale": "TNF reporter robust z-score: higher = stronger TNF reporter response to LPS", "call rule": "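Each well counts as active if its z-score is over 2.8 or under -1.5; controls are left without a call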", "note": "The deposit covers about 18,000 reagents; this is an unselected part. Over the whole deposit, about 2,900 (16%) were called active. 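Calls are made per well; low scores hint the gene aids the LPS response, high scores that it dampens it.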 Repeated entries: four replicate wells of each siRNA pool."}
{"gene knocked down": "BCL7C (BAF chromatin remodeling complex subunit BCL7C)", "TNF reporter robust z-score": 1.21, "call": "inactive"}
{"gene knocked down": "BCL7C (BAF chromatin remodeling complex subunit BCL7C)", "TNF reporter robust z-score": 1.85, "call": "inactive"}
{"gene knocked down": "BCL7C (BAF chromatin remodeling complex subunit BCL7C)", "TNF reporter robust z-score": 0.62, "call": "inactive"}
{"gene knocked down": "BCL7C (BAF chromatin remodeling complex subunit BCL7C)", "TNF reporter robust z-score": 0.83, "call": "inactive"}
{"gene knocked down": "TCEAL1 (transcription elongation factor A like 1)", "TNF reporter robust z-score": -1.76, "call": "active"}
{"gene knocked down": "TCEAL1 (transcription elongation factor A like 1)", "TNF reporter robust z-score": -1.94, "call": "active"}
{"gene knocked down": "TCEAL1 (transcription elongation factor A like 1)", "TNF reporter robust z-score": -1.8, "call": "active"}
{"gene knocked down": "TCEAL1 (transcription elongation factor A like 1)", "TNF reporter robust z-score": -1.7, "call": "active"}
{"gene knocked down": "DIS3 (DIS3 exosome endoribonuclease and 3'-5' exoribonuclease)", "TNF reporter robust z-score": 0.2, "call": "inactive"}
{"gene knocked down": "DIS3 (DIS3 exosome endoribonuclease and 3'-5' exoribonuclease)", "TNF reporter robust z-score": 0.4, "call": "inactive"}
{"gene knocked down": "DIS3 (DIS3 exosome endoribonuclease and 3'-5' exoribonuclease)", "TNF reporter robust z-score": -0.38, "call": "inactive"}
{"gene knocked down": "DIS3 (DIS3 exosome endoribonuclease and 3'-5' exoribonuclease)", "TNF reporter robust z-score": 0.28, "call": "inactive"}
{"gene knocked down": "TNFRSF12A (TNF receptor superfamily member 12A)", "TNF reporter robust z-score": 0.3, "call": "inactive"}
{"gene knocked down": "TNFRSF12A (TNF receptor superfamily member 12A)", "TNF reporter robust z-score": 0.07, "call": "inactive"}
{"gene knocked down": "TNFRSF12A (TNF receptor superfamily member 12A)", "TNF reporter robust z-score": 0.24, "call": "inactive"}
{"gene knocked down": "TNFRSF12A (TNF receptor superfamily member 12A)", "TNF reporter robust z-score": 0.32, "call": "inactive"}
{"gene knocked down": "MICOS10", "TNF reporter robust z-score": -0.14, "call": "inactive"}
{"gene knocked down": "MICOS10", "TNF reporter robust z-score": 0.55, "call": "inactive"}
{"gene knocked down": "MICOS10", "TNF reporter robust z-score": 0.05, "call": "inactive"}
{"gene knocked down": "MICOS10", "TNF reporter robust z-score": -0.18, "call": "inactive"}
{"gene knocked down": "RAB25 (RAB25, member RAS oncogene family)", "TNF reporter robust z-score": -0.75, "call": "inactive"}
{"gene knocked down": "RAB25 (RAB25, member RAS oncogene family)", "TNF reporter robust z-score": -0.41, "call": "inactive"}
{"gene knocked down": "RAB25 (RAB25, member RAS oncogene family)", "TNF reporter robust z-score": -0.87, "call": "inactive"}
{"gene knocked down": "RAB25 (RAB25, member RAS oncogene family)", "TNF reporter robust z-score": -0.28, "call": "inactive"}
{"gene knocked down": "TNNC2 (troponin C2, fast skeletal type)", "TNF reporter robust z-score": -0.43, "call": "inactive"}
{"gene knocked down": "TNNC2 (troponin C2, fast skeletal type)", "TNF reporter robust z-score": 0.74, "call": "inactive"}
{"gene knocked down": "TNNC2 (troponin C2, fast skeletal type)", "TNF reporter robust z-score": -0.17, "call": "inactive"}
{"gene knocked down": "TNNC2 (troponin C2, fast skeletal type)", "TNF reporter robust z-score": 1.64, "call": "inactive"}
{"gene knocked down": "PMFBP1 (polyamine modulated factor 1 binding protein 1)", "TNF reporter robust z-score": -0.61, "call": "inactive"}
{"gene knocked down": "PMFBP1 (polyamine modulated factor 1 binding protein 1)", "TNF reporter robust z-score": -0.08, "call": "inactive"}
{"gene knocked down": "PMFBP1 (polyamine modulated factor 1 binding protein 1)", "TNF reporter robust z-score": -0.54, "call": "inactive"}
{"gene knocked down": "PMFBP1 (polyamine modulated factor 1 binding protein 1)", "TNF reporter robust z-score": 0.32, "call": "inactive"}

Part of the list above, reformatted:
| gene knocked down | TNF reporter robust z-score | call |
| --- | --- | --- |
| TCEAL1 (transcription elongation factor A like 1) | -1.94 | active |
| TCEAL1 (transcription elongation factor A like 1) | -1.8 | active |
| TCEAL1 (transcription elongation factor A like 1) | -1.7 | active |
| DIS3 (DIS3 exosome endoribonuclease and 3'-5' exoribonuclease) | 0.2 | inactive |
| DIS3 (DIS3 exosome endoribonuclease and 3'-5' exoribonuclease) | 0.4 | inactive |

Further reagents:
{"gene knocked down": "AGR2", "TNF reporter robust z-score": -1.33, "call": "inactive"}
{"gene knocked down": "AGR2", "TNF reporter robust z-score": -1.48, "call": "inactive"}
{"gene knocked down": "AGR2", "TNF reporter robust z-score": -1.43, "call": "inactive"}
{"gene knocked down": "AGR2", "TNF reporter robust z-score": -0.46, "call": "inactive"}
{"gene knocked down": "HMGCS2 (3-hydroxy-3-methylglutaryl-CoA synthase 2)", "TNF reporter robust z-score": -0.81, "call": "inactive"}
{"gene knocked down": "HMGCS2 (3-hydroxy-3-methylglutaryl-CoA synthase 2)", "TNF reporter robust z-score": -0.98, "call": "inactive"}
{"gene knocked down": "HMGCS2 (3-hydroxy-3-methylglutaryl-CoA synthase 2)", "TNF reporter robust z-score": -0.97, "call": "inactive"}
{"gene knocked down": "HMGCS2 (3-hydroxy-3-methylglutaryl-CoA synthase 2)", "TNF reporter robust z-score": -0.58, "call": "inactive"}
{"gene knocked down": "DGLUCY (D-glutamate cyclase)", "TNF reporter robust z-score": -0.87, "call": "inactive"}
{"gene knocked down": "DGLUCY (D-glutamate cyclase)", "TNF reporter robust z-score": -0.14, "call": "inactive"}
{"gene knocked down": "DGLUCY (D-glutamate cyclase)", "TNF reporter robust z-score": -0.24, "call": "inactive"}
{"gene knocked down": "DGLUCY (D-glutamate cyclase)", "TNF reporter robust z-score": 0.09, "call": "inactive"}
{"gene knocked down": "CREBZF (CREB/ATF bZIP transcription factor)", "TNF reporter robust z-score": 0.2, "call": "inactive"}
{"gene knocked down": "CREBZF (CREB/ATF bZIP transcription factor)", "TNF reporter robust z-score": 0.42, "call": "inactive"}
{"gene knocked down": "CREBZF (CREB/ATF bZIP transcription factor)", "TNF reporter robust z-score": -0.21, "call": "inactive"}
{"gene knocked down": "CREBZF (CREB/ATF bZIP transcription factor)", "TNF reporter robust z-score": 0.57, "call": "inactive"}
